Laboratory results published in the supplement of paper PMC5949888.
Most values lie at the floor of the assay. Slopes are relative: functional sequences can read slightly below zero.

test system: Saccharomyces cerevisiae PS128 hsf1 delta, HSF1(1-493) fusion; experiment: growth estimate (transactivation domain function in HSF1 fusion, heat-shock survival) (a.u. (slope of normalised read count over time)); higher = stronger growth at 37°C, i.e. more transactivation activity; details: library: random library
Method: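 Random 60-nt DNA library encoding peptides of up to 20 aa, fused to the C-terminus of yeast HSF1 residues 1-493 (C-terminal TAD deleted) and expressed from the native HSF1 promoter on a CEN plasmid in hsf1-deleted S. cerevisiae PS128. Cells were selected at 37°C on -trp 5-FOA plates for 0, 2, 4, 6 and 8 days and amplicons were sequenced. Growth estimate is the slope of a robust linear fit of total-sum-normalised read counts (normalised to the first time point) over time, using at least 2 replicates. Sequences are classed functional (TAD activity) above a threshold of -0.13, set from stop-codon control sequences.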

Row | Substance | growth estimate
1 | GGETRNHA | < -0.25
2 | GGFRWVDLEMDRTRAECCS | < -0.25
3 | GGGAVQF | < -0.25
4 | GGGCWWWTFGALWSYAEISD | < -0.25
5 | GGGGDIRAGDP | < -0.25
6 | GGGNFMVGSIAIQ | < -0.25
7 | GGGNHCFNYTGVEHVMIHPP | < -0.25
8 | GGGRRRLSLLLSQYSSNKYP | < -0.25
9 | GGGSGAA | < -0.253
10 | GGGSSPVRA | < -0.25
11 | GGGTFSITRICPPSDQ | < -0.25
12 | GGGVFPLVEKGQLESWCLDG | < -0.25
13 | GGHRMAESMHFGPRFPRMT | < -0.25
14 | GGIGQGCGLLSVPLTVILID | < -0.25
15 | GGIGVQDQQKARLSNCLLNG | < -0.25
16 | GGIIPDQLRPAVSRTRSVTT | < -0.25
17 | GGILRAHPSGIWNTNTPYGR | < -0.25
18 | GGKATCFLGIYKANQQICRD | < -0.25
19 | GGKG | < -0.25
20 | GGKHAGHTR | < -0.25
21 | GGKHSA | < -0.25
22 | GGKHSRLENVATGFRPIDPE | < -0.25
23 | GGKY | < -0.25
24 | GGLFKSLVVKSKELLVFQII | < -0.25

Row | Substance | growth estimate
25 | GGLGDHTMLIRYIRWICIV | < -0.25
26 | GGLGNRYRPRPSPGPFPPIR | < -0.25
27 | GGLLIIRGLSACIRSRCNVE | < -0.25
28 | GGLPVDRVHDHDDALAVSDD | < -0.25
29 | GGLRRATRPRPSLNGRSVTK | < -0.25
30 | GGLVKLTPSIFVSSAALRSG | < -0.25
31 | GGLVLPHQVLISQIWVGTDY | < -0.25
32 | GGMPREQAHGTRFSSVSDAP | < -0.25
33 | GGMREGGDLAKRYGRCISTR | -0.243
34 | GGMVRCSQLYSSALWRRSAQ | < -0.25
35 | GGNIGLIEP | < -0.25
36 | GGNTPGGRVFDCC | < -0.25
37 | GGP | < -0.25
38 | GGQKGVGGLNLMVSY | < -0.25
39 | GGQLMRRSRKEDMHLALWAT | < -0.25
40 | GGQRTAQRIAW | < -0.25
41 | GGQVIRQS | < -0.25
42 | GGQWRCSVTWASLQHVSRYK | < -0.25
43 | GGRAYLTP | < -0.25
44 | GGRDADVNTTRGRDGLGMR | < -0.25
45 | GGRDLDH | < -0.25
46 | GGRKKANIAASYGWD | < -0.25
47 | GGRLTTDRY | -0.239
48 | GGRMFHHHQVLSSSTCGIHW | -0.246

6 records picked at random from the list so far, as already listed:
Row | Substance | growth estimate
26 | GGLGNRYRPRPSPGPFPPIR | < -0.25
35 | GGNIGLIEP | < -0.25
41 | GGQVIRQS | < -0.25
42 | GGQWRCSVTWASLQHVSRYK | < -0.25
25 | GGLGDHTMLIRYIRWICIV | < -0.25
47 | GGRLTTDRY | -0.239

The results go on:

Row | Substance | growth estimate
49 | GGRNSIGLCGNLIC | < -0.25
50 | GGRPCA | < -0.25
51 | GGRTRGTTGLLWPDGPEVGV | < -0.25
52 | GGRVARVFVAHFDRWNHASD | < -0.25
53 | GGRVLGRSRSRLTLIYSTLR | < -0.25
54 | GGRYGRCGRSTGQPARRIQR | < -0.25
55 | GGSAGLVNDGRCGSDVHCRS | < -0.25
56 | GGSDCEMRLHCVLTVRDH | < -0.25
57 | GGSFPGPNLDATSKRKRSAI | < -0.25
58 | GGSGINK | < -0.25
59 | GGSGSSVKQLLAPLMTFAQP | < -0.25
60 | GGSIHMSQFSLVCVRCPVC | < -0.25
61 | GGSLDSVAAAEDPAPSSIWI | < -0.25
62 | GGSRRCRVKLQLSPCPMLQN | < -0.25
63 | GGTEGGSQTAHTENAFGVCP | < -0.25
64 | GGTMG | < -0.25
65 | GGTMGYGYMSKSATASPQPL | < -0.25
66 | GGTPDVPDSMTGRLPTV | < -0.25
67 | GGV | < -0.25
68 | GGVHNTDRTVSTGNSKA | < -0.25
69 | GGVLYGTGWTGPARE | < -0.25
70 | GGWLSQDANTRGSDARKHSA | < -0.25
71 | GGWSDMALQRCV | -0.243
72 | GGYHGRERGSRLADLLSHQA | < -0.25

Row | Substance | growth estimate
73 | GGYPGDDPKRPKGSTAPLK | < -0.25
74 | GGYRTEV | < -0.25
75 | GHDLWRVNHEFGTVRDA | < -0.25
76 | GHDNRRRRLP | < -0.25
77 | GHDYLVFQYSFDHL | -0.11
78 | GHESSRLMVSTLRKRSQCWR | < -0.25
79 | GHFSRYWASVGVDRSAAPNP | < -0.25
80 | GHFWHGCKAGPDSKQTGKFA | < -0.25
81 | GHGIKWVLRTWVQHRRGTGP | < -0.25
82 | GHGNIRR | < -0.25
83 | GHGSRGAQTPVALHLTRHLT | < -0.25
84 | GHHQANRWSGPGRWPIRVRL | < -0.25
85 | GHIFISHVPVTLLGISKGGS | < -0.25
86 | GHIKSHCTRWVVSGRHAHIG | < -0.25
87 | GHKRTLDVQATGTTGGGQAG | < -0.25
88 | GHLLGSVSLIAYMTVGCRDT | < -0.25
89 | GHLQFKFNKDPPGTDLGESR | < -0.25
90 | GHPEPPLSEGISIGRLWVRE | < -0.25
91 | GHPIQGQVRVGSQRGYVVSA | -0.243
92 | GHQG | < -0.25
93 | GHR | < -0.25
